The other results are listed elsewhere or left out.
How the values were obtained:
Test in all cases: log2 fold change, soluble protein after heating vs DMSO (PISA); higher = thermal stabilisation; K562 lysate, 10 uM; active = over 0.2 and 3.5 SD of the protein, either way, in both replicates (recomputed)
[1] = compound: NCC(=O)Nc1ccc(-n2nc(C(F)(F)F)cc2-c2ccc3c(ccc4ccccc43)c2)cc1
In short: (§1)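 K562 pellets were dounce-homogenised in PBS pH 7.4 with 1 mM MgCl2, and the crude extract at 1 mg/mL protein was treated with 10 μM compound for 30 min. Aliquots were heated for 3 min across 48°C-58°C, pooled, and brought to 0.5% NP-40 at 4°C; soluble protein was the supernatant after 21,000xg for 90 min. Soluble protein was quantified by TMTpro 16plex LC-MS/MS with channel sums equalised, and reported as log2 fold change in thermal stability against DMSO controls, with values from duplicates.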

Amino acid sequences for entries named in this document (tags omitted). A change or cut given only in a name is not applied to a line headed by its entry.
UniProt Q9NVH0: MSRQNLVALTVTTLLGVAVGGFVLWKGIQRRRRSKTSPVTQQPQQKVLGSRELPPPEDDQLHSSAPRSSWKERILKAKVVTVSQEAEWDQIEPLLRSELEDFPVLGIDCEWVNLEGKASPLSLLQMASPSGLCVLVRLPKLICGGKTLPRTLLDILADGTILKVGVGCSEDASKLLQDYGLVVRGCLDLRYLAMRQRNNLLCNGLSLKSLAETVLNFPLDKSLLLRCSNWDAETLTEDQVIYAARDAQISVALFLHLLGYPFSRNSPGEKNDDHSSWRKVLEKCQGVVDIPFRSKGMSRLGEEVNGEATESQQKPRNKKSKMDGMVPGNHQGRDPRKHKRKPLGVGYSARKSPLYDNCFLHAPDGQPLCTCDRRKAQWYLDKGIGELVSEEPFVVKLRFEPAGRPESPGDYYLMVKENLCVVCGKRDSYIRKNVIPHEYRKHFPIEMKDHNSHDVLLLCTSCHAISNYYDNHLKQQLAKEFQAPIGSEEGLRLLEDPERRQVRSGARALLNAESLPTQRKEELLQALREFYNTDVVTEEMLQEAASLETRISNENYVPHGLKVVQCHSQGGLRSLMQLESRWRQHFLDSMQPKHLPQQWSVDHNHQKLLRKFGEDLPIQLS
UniProt Q9H098: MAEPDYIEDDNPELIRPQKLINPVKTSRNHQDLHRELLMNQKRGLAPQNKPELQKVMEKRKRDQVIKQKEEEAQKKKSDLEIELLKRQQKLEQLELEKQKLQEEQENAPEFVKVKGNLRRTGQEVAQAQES
UniProt Q96GK7: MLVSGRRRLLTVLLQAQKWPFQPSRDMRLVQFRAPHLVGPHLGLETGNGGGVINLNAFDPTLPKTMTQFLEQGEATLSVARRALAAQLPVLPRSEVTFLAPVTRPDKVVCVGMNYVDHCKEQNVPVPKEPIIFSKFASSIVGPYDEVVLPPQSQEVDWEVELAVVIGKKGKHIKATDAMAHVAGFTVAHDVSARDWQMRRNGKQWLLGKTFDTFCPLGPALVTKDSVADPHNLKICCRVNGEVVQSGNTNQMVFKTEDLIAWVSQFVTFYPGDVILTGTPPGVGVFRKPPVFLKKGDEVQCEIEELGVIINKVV
UniProt P13804: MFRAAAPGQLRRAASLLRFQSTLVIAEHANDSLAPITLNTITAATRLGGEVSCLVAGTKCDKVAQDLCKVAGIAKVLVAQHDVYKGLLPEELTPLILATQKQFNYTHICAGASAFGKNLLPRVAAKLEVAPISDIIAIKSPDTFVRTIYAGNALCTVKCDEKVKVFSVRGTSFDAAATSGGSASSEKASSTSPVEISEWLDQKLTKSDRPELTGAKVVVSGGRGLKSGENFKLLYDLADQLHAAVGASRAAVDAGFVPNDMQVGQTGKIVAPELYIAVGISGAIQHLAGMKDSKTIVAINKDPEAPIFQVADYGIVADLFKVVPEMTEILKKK
UniProt Q86X53: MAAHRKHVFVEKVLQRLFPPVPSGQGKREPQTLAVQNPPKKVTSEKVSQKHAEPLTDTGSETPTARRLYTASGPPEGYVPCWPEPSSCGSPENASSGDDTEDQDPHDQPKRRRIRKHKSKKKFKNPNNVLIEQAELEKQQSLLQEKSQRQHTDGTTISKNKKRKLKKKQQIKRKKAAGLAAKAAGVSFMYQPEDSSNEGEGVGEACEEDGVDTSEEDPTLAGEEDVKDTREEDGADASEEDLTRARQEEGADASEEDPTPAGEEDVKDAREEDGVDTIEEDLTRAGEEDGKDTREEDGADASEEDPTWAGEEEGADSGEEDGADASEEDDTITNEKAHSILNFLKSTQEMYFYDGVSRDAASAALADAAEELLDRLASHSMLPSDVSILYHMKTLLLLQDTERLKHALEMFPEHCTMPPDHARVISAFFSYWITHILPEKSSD
UniProt Q9Y421: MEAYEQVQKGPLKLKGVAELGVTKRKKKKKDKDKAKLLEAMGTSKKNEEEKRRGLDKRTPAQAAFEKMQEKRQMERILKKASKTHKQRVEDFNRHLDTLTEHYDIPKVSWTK
UniProt Q16134: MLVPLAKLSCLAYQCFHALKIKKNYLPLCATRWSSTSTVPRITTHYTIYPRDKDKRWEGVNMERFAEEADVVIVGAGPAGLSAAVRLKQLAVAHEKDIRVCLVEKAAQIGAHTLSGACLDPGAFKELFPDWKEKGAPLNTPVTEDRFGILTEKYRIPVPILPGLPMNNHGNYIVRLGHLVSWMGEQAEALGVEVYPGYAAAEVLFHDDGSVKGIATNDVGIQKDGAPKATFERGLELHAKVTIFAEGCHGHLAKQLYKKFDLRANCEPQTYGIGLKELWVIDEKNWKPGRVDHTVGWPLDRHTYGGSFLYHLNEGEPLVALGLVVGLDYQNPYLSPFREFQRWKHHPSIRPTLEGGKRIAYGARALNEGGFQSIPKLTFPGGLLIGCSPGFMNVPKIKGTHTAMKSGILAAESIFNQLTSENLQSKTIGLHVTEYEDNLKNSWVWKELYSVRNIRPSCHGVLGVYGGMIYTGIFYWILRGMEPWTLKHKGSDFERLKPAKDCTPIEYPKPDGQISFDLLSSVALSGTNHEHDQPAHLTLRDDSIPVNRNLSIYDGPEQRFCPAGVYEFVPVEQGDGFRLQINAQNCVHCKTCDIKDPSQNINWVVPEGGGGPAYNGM
UniProt Q9HBU6: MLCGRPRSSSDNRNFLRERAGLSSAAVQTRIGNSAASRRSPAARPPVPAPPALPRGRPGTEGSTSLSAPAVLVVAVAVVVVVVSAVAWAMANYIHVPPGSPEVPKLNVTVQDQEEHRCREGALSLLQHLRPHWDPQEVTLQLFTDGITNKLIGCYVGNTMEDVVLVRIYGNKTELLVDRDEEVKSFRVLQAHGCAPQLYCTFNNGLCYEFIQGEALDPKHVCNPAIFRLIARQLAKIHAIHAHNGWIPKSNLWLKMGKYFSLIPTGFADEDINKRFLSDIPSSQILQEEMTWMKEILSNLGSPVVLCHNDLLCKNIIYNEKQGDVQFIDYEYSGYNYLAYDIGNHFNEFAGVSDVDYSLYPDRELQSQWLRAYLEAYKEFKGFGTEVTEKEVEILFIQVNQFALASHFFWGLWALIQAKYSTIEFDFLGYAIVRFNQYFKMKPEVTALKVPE
UniProt Q9Y5Q0: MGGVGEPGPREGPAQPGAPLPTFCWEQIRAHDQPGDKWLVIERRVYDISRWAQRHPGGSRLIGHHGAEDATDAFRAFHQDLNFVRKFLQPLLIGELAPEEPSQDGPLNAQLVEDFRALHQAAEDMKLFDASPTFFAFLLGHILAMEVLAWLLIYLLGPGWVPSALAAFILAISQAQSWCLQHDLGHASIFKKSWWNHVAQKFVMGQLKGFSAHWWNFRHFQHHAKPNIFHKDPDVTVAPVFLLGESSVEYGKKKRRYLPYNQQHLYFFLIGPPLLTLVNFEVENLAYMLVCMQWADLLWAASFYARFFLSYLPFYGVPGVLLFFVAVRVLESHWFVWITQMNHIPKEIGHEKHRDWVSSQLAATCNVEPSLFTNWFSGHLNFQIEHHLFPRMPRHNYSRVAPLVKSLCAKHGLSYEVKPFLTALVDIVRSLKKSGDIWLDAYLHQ
UniProt Q9UNN5: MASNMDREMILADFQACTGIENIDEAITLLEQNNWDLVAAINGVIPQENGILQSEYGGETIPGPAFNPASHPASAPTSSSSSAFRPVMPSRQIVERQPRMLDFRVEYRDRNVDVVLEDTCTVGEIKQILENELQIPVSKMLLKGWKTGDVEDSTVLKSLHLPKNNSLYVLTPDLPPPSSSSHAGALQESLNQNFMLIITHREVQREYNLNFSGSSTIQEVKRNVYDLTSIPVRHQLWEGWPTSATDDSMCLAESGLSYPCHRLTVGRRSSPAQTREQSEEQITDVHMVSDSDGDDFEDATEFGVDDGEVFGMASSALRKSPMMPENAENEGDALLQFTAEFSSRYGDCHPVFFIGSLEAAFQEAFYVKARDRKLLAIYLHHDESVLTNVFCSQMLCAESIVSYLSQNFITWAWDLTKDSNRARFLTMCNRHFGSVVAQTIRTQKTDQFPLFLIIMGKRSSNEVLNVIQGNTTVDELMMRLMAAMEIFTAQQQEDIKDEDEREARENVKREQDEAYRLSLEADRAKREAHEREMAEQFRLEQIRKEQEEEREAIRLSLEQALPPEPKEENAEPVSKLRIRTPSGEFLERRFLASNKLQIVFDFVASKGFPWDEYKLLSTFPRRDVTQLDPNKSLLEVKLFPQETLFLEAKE
UniProt Q14674: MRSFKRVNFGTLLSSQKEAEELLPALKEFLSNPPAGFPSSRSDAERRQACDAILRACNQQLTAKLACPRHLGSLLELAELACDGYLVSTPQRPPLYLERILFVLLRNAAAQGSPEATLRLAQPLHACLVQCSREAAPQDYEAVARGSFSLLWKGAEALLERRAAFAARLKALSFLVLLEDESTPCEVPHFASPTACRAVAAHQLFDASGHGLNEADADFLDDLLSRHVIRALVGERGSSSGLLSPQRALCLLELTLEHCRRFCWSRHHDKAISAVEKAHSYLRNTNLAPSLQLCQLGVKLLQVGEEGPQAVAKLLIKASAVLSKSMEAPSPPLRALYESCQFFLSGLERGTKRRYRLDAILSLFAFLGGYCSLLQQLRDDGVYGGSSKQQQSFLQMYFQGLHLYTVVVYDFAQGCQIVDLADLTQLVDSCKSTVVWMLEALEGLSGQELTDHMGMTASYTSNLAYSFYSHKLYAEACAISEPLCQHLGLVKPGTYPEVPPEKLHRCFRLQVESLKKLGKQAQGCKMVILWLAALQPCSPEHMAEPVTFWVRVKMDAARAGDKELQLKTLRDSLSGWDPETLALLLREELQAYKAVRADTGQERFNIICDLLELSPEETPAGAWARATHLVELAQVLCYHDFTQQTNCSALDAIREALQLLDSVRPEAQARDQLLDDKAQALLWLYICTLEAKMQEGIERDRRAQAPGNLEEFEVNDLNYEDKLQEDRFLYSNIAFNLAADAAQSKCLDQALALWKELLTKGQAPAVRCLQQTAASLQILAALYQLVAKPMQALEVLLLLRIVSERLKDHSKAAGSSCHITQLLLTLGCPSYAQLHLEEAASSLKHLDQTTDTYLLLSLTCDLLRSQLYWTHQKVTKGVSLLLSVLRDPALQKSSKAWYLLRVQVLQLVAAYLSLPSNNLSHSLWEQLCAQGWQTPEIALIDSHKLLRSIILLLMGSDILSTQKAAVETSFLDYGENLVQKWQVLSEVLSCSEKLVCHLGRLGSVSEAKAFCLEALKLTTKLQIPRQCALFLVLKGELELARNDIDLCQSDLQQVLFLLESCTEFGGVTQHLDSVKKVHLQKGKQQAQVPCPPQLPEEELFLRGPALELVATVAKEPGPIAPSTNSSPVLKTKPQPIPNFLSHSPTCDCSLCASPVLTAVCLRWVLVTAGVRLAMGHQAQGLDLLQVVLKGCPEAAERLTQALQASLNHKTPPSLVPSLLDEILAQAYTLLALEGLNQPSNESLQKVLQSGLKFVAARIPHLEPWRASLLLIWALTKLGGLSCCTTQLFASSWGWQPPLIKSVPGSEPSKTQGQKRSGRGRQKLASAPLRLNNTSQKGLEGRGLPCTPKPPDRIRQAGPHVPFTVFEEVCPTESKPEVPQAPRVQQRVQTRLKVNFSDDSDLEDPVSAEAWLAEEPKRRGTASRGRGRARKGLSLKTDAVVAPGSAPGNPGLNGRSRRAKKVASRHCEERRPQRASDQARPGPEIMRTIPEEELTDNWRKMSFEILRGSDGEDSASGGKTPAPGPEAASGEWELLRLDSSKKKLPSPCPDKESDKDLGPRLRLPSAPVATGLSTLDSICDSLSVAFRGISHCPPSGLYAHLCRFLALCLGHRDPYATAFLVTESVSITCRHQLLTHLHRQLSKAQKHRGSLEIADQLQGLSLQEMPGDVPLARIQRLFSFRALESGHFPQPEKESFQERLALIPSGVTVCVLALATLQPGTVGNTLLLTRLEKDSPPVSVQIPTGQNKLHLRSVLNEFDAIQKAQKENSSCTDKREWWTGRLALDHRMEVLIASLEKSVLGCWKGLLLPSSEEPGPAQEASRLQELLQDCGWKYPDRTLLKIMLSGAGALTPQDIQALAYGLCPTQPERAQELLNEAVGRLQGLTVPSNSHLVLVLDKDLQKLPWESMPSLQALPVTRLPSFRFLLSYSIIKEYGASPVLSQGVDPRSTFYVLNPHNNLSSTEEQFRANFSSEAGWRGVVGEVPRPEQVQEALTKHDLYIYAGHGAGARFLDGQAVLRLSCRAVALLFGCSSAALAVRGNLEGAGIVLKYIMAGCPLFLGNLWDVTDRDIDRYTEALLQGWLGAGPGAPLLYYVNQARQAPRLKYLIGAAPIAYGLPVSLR
UniProt Q9Y624, whole entry, looked up, stated change not applied: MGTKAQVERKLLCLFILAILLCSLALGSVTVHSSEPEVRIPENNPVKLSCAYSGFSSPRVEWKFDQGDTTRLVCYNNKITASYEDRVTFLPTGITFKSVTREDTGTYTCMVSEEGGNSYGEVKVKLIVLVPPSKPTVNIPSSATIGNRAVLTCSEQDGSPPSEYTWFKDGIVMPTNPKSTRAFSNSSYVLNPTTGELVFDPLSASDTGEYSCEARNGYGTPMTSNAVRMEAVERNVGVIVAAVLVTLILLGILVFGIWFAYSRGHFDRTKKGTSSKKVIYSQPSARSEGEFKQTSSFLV

vorinostat = compound: O=C(CCCCCCC(=O)Nc1ccccc1)NO [vorinostat]
In short: as §1

silmitasertib = compound: O=C(O)c1ccc2c(c1)nc(Nc1cccc(Cl)c1)c1ccncc12 [silmitasertib]
In short: as §1

[2] = compound: O=C1NC(=O)C(c2cnc3ccccn23)=C1c1cn2c3c(cc(F)cc13)CN(C(=O)N1CCCCC1)CC2
In short: as §1

entospletinib = compound: c1cn2cc(-c3ccc4cn[nH]c4c3)nc(Nc3ccc(N4CCOCC4)cc3)c2n1 [entospletinib]
In short: as §1

Measured: log2 fold change

FAM117B (UniProt Q6P1L5)
inactive: [1] 0.06 | vorinostat -0.251 | silmitasertib 0 | [2] 0.032

EXD2 (UniProt Q9NVH0)
inactive: [1] 0.039 | vorinostat -0.351 | silmitasertib 0.136 | [2] 0.04

EZH2 isoform 2 (UniProt Q15910)
inactive: [1] 0.018 | vorinostat -0.171 | silmitasertib -0.031 | [2] 0.026 | entospletinib 0.022

FAM193A, A0A1B0GVL4
inactive: [1] 0.065 | vorinostat -0.405 | silmitasertib 0.144 | [2] -0.038 | entospletinib 0.218

FAM107B isoform 2 (UniProt Q9H098)
inactive: [1] 0.022 | vorinostat 0.117 | silmitasertib -0.09 | [2] 0.04 | entospletinib -0.032

FADS1, A0A0A0MR51
inactive: [1] 0.054 | vorinostat 0.093 | silmitasertib -0.003 | [2] -0.046 | entospletinib -0.028

FAHD2A (UniProt Q96GK7)
inactive: [1] 0.019 | vorinostat 0.078 | silmitasertib 0.001 | [2] 0.011 | entospletinib 0.029

ERMAP (UniProt Q96PL5)
inactive: [1] -0.007 | vorinostat 0.138 | silmitasertib 0.033 | [2] 0.065 | entospletinib -0.036

ETFA (UniProt P13804)
inactive: [1] 0.032 | vorinostat 0.046 | silmitasertib -0.006 | [2] 0.01 | entospletinib -0.009

ERICH1 (UniProt Q86X53)
inactive: [1] -0.039 | vorinostat -0.024 | silmitasertib -0.127 | [2] 0.077 | entospletinib -0.035

EXOSC2 (UniProt Q13868)
inactive: [1] 0.002 | vorinostat 0.197 | silmitasertib -0.007 | [2] -0.033 | entospletinib -0.002

FAM32A (UniProt Q9Y421)
inactive: [1] -0.005 | vorinostat 0.055 | silmitasertib -0.015 | [2] -0.006 | entospletinib 0.08

ETFB (UniProt P38117)
inactive: [1] 0.04 | vorinostat 0.085 | silmitasertib -0.013 | [2] 0.016 | entospletinib 0.01

FAM122B isoform 3 (UniProt Q7Z309)
inactive: [1] 0.029 | vorinostat 0.091 | silmitasertib -0.04 | [2] 0.007 | entospletinib -0.075

FAM133B (UniProt Q5BKY9)
inactive: [1] -0.152 | vorinostat 0.162 | silmitasertib -0.052 | [2] -0.043 | entospletinib -0.052

FAM53B (UniProt Q14153)
inactive: [1] 0.056 | vorinostat -0.06 | silmitasertib 0.049 | [2] 0.02 | entospletinib -0.003

FAM83D (UniProt Q9H4H8)
inactive: [1] 0 | silmitasertib 0.031 | [2] -0.004 | entospletinib 0.021
active: vorinostat -0.243

FAM3A (UniProt P98173)
inactive: [1] -0.037 | vorinostat 0.123 | silmitasertib -0.003 | [2] -0.107 | entospletinib -0.078

ETFDH (UniProt Q16134)
inactive: [1] -0.007 | vorinostat 0.117 | silmitasertib 0.035 | [2] -0.034 | entospletinib -0.003

ETNK1 (UniProt Q9HBU6)
inactive: [1] 0.032 | vorinostat -0.029 | silmitasertib -0.012 | [2] 0.084 | entospletinib 0.011

FADS3 (UniProt Q9Y5Q0)
inactive: [1] 0.21 | vorinostat 0.247 | silmitasertib -0.126 | [2] 0.004 | entospletinib -0.185

FAF1 (UniProt Q9UNN5)
inactive: [1] -0.009 | vorinostat 0.011 | silmitasertib -0.001 | [2] -0.036 | entospletinib -0.002

ESPL1 (UniProt Q14674)
inactive: [1] 0.027 | vorinostat -0.21 | silmitasertib 0.098 | [2] 0.057 | entospletinib -0.066

FAM120A isoform 6 (UniProt Q9NZB2)
inactive: [1] 0.012 | vorinostat -0.134 | silmitasertib -0.016 | [2] 0.005 | entospletinib 0.012

F11R (UniProt Q9Y624)
inactive: [1] 0.022 | vorinostat 0.135 | silmitasertib -0.005 | [2] -0.035 | entospletinib -0.011

FAM76A isoform 3 (UniProt Q8TAV0)
inactive: [1] 0.077 | vorinostat 0.124 | silmitasertib 0.024 | [2] -0.075 | entospletinib 0.087

2 entries drawn at random from those above, as already listed:
FAM76A isoform 3 (UniProt Q8TAV0)
inactive: [1] 0.077 | vorinostat 0.124 | silmitasertib 0.024 | [2] -0.075 | entospletinib 0.087

F11R (UniProt Q9Y624)
inactive: [1] 0.022 | vorinostat 0.135 | silmitasertib -0.005 | [2] -0.035 | entospletinib -0.011

More entries follow.

EXOC8 (UniProt Q8IYI6)
inactive: [1] 0.029 | vorinostat -0.129 | silmitasertib 0.006 | [2] 0.004 | entospletinib -0.009

— the supplement of paper PMC10849652
